# Results taken from PubChem BioAssay AID2685 (National Center for Advancing Translational Sciences (NCATS), 2010).
# This is one part of the list. Further columns of the screen follow, without active or inactive calls. Most of these compounds were active or inconclusive in the main read-out, so they are no random draw. Words in brackets tell the shape of the fitted curve; partial curves, single points and poor fits give uncertain potencies.
# Test: qHTS Assay for Lipid Storage Modulators in Drosophila S3 Cells;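 as to cell number change: cells counted by Cell Tracker Red CMTPX staining in the red channel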
# Details: BODIPY lipid droplet fluorescence, 18-24 h; for cell number change: measured here: cell count max response, cells fed with added oleic acid
# How it was run: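 Drosophila S3 cells got compounds at several concentrations plus oleic acid (400 uM solution). Laser-scanning cytometry with 488 nm excitation read lipid droplets at 500-530 nm and cells at 575-640 nm. Percent activity was relative to 20 uM Triacsin C.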
# [1] = measured here: cell number channel AC50, cells fed with added oleic acid
# [2] = measured here: lipid fluorescence (Fed channel) AC50, cells fed with added oleic acid
Structure (SMILES),cell number change [%],AC50 [1],AC50 [2]
N#Cc1c(N)nc(SCC(=O)OCc2ccccc2)c(C#N)c1-c1ccco1,92.8,"13 µM [rising, partial curve]",
O=C(CCc1nnc(COc2ccccc2)o1)NCc1ccccc1C(F)(F)F,-25.6,,"20.6 µM [falling, single point]"
O=C(CS(=O)(=O)Cc1ccccc1)Nc1ncccn1,-20.5,,"1.46 µM [falling, partial curve]"
Nc1nnc(SCc2ccc(F)cc2)s1,0.128,,"0.82 µM [falling, full curve, poor fit]"
Cc1cc(C)nc(NS(=O)(=O)c2ccc(CC(C)C)cc2)c1,15.4,"0.103 µM [rising, full curve, poor fit]","9.2 µM [rising, partial curve, poor fit]"
CCN(CC)c1nc(C#N)cc(-c2ccc(OC)cc2)n1,-6.89,,"0.731 µM [falling, single point]"
CN(C)c1ccc(N2CC(C)(C)C2=O)cc1,3.12,,"0.731 µM [falling, single point]"
COc1ccc(-c2c(C#Cc3ccsc3)c3cc(-c4ccc(OC)nc4)ccc3n2C)cc1,13.4,,"0.731 µM [rising, partial curve]"
O=C(Nc1nc2ccccc2[nH]1)C1CCCO1 (stereo unspecified),0.0701,,"0.00461 µM [rising, full curve, poor fit]"
Cc1ccc(CNC(=O)CCS(=O)(=O)c2cc3c(cc2Cl)NC(=O)CO3)o1,-0.288,,"0.164 µM [rising, partial curve, poor fit]"
O=C1CCCC(=O)C1=C1SCCS1,-11.8,,"0.116 µM [falling, full curve, poor fit]"
Cc1cccc2cc(CN(CC3CCCO3)C(c3nnnn3Cc3ccco3)C(C)C)c(=O)[nH]c12 (stereo unspecified),-21.6,,
Cc1cccc(CNc2ncnc3ccc(-c4ccc5c(ccn5C)c4)cc23)c1,-20.5,,"14.6 µM [falling, partial curve]"
CC(C)OC(=O)Cn1cnc2ccc(Br)cc2c1=O,-42.9,"25.9 µM [falling, single point]","29.1 µM [falling, single point]"
CCOC(=O)CN1C(c2ccc(O)cc2)Nc2ccc(Br)cc2C1c1ccccc1 (stereo unspecified),-17.4,,"13 µM [falling, single point]"
O=S(=O)(c1cc(C(F)(F)F)ccc1Cl)N1CCCCCC1,-32.3,"29.1 µM [falling, single point]","29.1 µM [falling, single point]"
CCN(CC(=O)Nc1c(F)cccc1F)C(=O)c1nn(C)c(=O)c2ccccc12,-15.5,,"32.6 µM [falling, single point]"
Cc1cn([C@H](C(=O)NCCCCCCCCCCC(=O)N2CCNCC2)[C@@H](C)O)nn1,-36.4,"29.1 µM [falling, single point]","29.1 µM [falling, single point]"
CCOc1ccc(N2CC(C(=O)N3CCCC3)CC2=O)cc1 (stereo unspecified),15.8,,"8.2 µM [rising, partial curve]"
CCOc1cc2c3c(c1)C1(C(=O)N3C(C)(C)CC2C)C(C#N)=C(N)N2C(=C1C#N)Nc1ccccc12 (stereo unspecified),-16.1,,"6.51 µM [falling, full curve, poor fit]"
C/C(N)=C(/C#N)C(=O)CSc1cc(Cl)ccc1Cl,-25.4,"0.206 µM [falling, full curve, poor fit]",
CCCCCCC1CC(CCC(=O)Nc2ccc([N+](=O)[O-])cc2)C(=O)O1 (stereo unspecified),22,,"0.651 µM [falling, single point]"
COc1ccc(Nc2nc(N3CCCCC3)nc(N3CCCCC3)n2)c(OC)c1,-2.88,,
Cc1nc2ccccc2c2oc(C(=O)N3CCN(c4ccc([N+](=O)[O-])cc4)CC3)cc12,,"0.13 µM [rising, full curve, poor fit]","0.206 µM [rising, full curve, poor fit]"
COC(=O)c1nn(C23CC4CC(CC(C4)C2)C3)c2c1C(=O)N(c1ccc(F)cc1)C2=O,54.5,"29.1 µM [rising, single point]","20.6 µM [rising, single point]"
CCN(Cc1ccccc1)Cc1nc(CCc2ccccc2)no1,,,"2.31 µM [rising, partial curve, poor fit]"
Cc1ccc(NC(=O)CNc2cccc(S(=O)(=O)N3CCOCC3)c2)cc1F,69.7,"16.4 µM [rising, partial curve, poor fit]",

# 3 entries out of the list, ordered by SMILES length, descending:
Structure (SMILES),cell number change [%],AC50 [1],AC50 [2]
CCN(CC(=O)Nc1c(F)cccc1F)C(=O)c1nn(C)c(=O)c2ccccc12,-15.5,,"32.6 µM [falling, single point]"
O=S(=O)(c1cc(C(F)(F)F)ccc1Cl)N1CCCCCC1,-32.3,"29.1 µM [falling, single point]","29.1 µM [falling, single point]"
CCN(Cc1ccccc1)Cc1nc(CCc2ccccc2)no1,,,"2.31 µM [rising, partial curve, poor fit]"
